Source: publication PMC3498158
Results are given in words; binding and its absence hold for the method and conditions named. Binding can be weak; no strength is given.

Biological target: T1, USP (ultraspiracle), endogenous in aff3 cells (Bombyx mori (endogenous in aff3)) (UniProt P49700)
T1 sequence: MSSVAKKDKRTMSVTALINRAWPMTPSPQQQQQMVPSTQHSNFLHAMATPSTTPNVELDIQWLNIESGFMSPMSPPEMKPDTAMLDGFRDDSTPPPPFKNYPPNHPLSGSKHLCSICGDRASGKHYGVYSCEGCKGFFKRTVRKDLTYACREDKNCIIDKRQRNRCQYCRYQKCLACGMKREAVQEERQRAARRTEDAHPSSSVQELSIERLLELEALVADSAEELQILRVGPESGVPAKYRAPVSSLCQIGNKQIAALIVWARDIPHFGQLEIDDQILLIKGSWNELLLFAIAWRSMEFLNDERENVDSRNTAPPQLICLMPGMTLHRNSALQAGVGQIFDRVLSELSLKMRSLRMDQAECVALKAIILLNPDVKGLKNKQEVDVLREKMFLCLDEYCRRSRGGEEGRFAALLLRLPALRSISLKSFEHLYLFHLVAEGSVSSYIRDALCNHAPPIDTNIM
Assay: native gel or EMSA; super shift assay: whole-cell extracts of aff3 cells overexpressing V5-tagged EcR-A or EcR-B1 incubated with 32P probes (BmEcRB1-E1, BmE75A-EcRE, BHR3B-EcRE) 20 min on ice, then anti-V5 and anti-USP antibodies together 1.5 h on ice; 4% polyacrylamide gel; both proteins found in one protein-DNA complex (super-shift2)

## BmEcR-A tagged with a V5 antigen (A^T) (Bombyx mori) (receptor)
  binding: binds
